The source of these data is article PMC2747018.

By UniProt entry, the sequences of proteins in these tests, tags left out.
UniProt P09012: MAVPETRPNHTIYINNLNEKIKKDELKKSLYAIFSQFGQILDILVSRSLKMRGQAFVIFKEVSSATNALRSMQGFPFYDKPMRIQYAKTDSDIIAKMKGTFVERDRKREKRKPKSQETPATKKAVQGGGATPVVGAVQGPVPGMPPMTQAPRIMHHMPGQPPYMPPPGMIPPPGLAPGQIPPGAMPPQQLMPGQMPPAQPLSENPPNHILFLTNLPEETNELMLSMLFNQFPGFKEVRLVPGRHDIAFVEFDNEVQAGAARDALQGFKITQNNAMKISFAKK
UniProt P62316: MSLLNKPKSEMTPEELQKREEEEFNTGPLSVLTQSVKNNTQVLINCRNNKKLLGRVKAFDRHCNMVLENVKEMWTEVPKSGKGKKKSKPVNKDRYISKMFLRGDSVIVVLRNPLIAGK
UniProt P62308: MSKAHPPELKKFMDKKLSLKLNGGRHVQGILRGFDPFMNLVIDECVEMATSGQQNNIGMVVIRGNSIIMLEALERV
UniProt P62318: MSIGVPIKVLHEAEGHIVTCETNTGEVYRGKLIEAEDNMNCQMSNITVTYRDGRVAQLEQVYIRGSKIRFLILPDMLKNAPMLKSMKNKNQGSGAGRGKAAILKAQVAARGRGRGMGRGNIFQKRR
UniProt P62304: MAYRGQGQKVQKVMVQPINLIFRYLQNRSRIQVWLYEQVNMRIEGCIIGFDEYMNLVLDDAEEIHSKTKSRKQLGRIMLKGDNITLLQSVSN
UniProt P09234: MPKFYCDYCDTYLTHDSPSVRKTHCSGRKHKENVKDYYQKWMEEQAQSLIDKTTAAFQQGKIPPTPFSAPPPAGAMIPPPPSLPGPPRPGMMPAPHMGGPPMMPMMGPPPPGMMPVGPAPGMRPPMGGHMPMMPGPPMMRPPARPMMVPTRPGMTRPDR

For this experiment, the target named is U1-A protein of the native human U1 snRNP (human (endogenous in HeLa)) (UniProt P09012). The experiment can be described thus: affinity purification with mass spectrometry; U1 snRNP immunoprecipitated from HeLa nuclear extract with an affinity-purified antibody against U1-A aa 1-14 on Protein A Sepharose (IP150: 20 mM Hepes pH 7.9, 150 mM NaCl, 1.5 mM MgCl2, 0.5 mM DTT, 3 h, 4°C), eluted with the antigenic peptide, 5-20% glycerol gradient; proteins identified by proteomic analysis and LC-MS of the denatured complex; the complex holds U1 snRNA.

Results are given in words; binding and its absence hold for the method and conditions named. Binding seen in cells or lysates may run through a third protein. Here binding means that the protein was enriched with, or labelled near, the bait; the list need not be complete.

Consider Sm-D2 (from UniProt P62316 1-118), for which the binding result is “binds”.

Sm-G (from UniProt P62308 1-76): the binding entry is reported as “binds”. For Sm-D3 (from UniProt P62318 1-126), the binding result is “binds”. Sm-E (from UniProt P62304 1-92): the binding result was “binds”.

Regarding “U1-C protein of the native human U1 snRNP (from UniProt P09234 1-159)”, the binding result is recorded as “binds”.
